These are yes or no findings as the source states them, for the method shown. In cells and extracts the contact can be indirect. Some results given as binding are weak or reduced against the parent protein; the word gives no strength. For part of these data: Where a sequence is shown, tags or fusion partners need not be part of it.
How the values were obtained:
[1] = target: SK3 channel (rat (endogenous in rat brain)) (UniProt P70605); test: co-IP; magnetic beads loaded with SK3 channel antibodies; precipitate from rat brain; Abi-1 and nWASP detected in the precipitate
[2] = target: T1, Abi-1 SH3 domain fusion protein (UniProt Q9QZM5); test: co-IP; co-transfected COS7 cells, lysate; protein immobilized on µMACS Micro beads coupled with the specific antibodies
T1 sequence: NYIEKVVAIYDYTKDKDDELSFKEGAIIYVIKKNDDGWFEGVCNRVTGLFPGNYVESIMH

The chains behind the UniProt entries cited, without tags or fusion partners.
UniProt P70605: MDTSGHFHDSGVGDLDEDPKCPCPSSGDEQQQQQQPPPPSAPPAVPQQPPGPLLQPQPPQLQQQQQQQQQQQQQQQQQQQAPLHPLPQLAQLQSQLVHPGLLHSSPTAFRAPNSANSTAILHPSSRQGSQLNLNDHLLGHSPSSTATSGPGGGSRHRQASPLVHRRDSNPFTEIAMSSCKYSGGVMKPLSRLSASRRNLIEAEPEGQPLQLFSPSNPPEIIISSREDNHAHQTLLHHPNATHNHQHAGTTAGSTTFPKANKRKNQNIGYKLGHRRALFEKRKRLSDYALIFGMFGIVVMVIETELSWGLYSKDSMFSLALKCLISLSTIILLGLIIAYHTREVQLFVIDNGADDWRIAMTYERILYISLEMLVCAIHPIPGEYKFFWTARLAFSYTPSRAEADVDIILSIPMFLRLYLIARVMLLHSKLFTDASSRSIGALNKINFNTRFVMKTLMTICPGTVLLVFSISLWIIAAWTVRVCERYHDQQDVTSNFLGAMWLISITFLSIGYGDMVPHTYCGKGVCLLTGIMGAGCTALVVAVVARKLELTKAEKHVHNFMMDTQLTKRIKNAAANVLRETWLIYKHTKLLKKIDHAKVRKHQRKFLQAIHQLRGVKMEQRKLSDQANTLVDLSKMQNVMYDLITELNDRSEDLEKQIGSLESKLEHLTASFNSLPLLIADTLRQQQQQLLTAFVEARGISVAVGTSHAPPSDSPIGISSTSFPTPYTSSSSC
UniProt O08816: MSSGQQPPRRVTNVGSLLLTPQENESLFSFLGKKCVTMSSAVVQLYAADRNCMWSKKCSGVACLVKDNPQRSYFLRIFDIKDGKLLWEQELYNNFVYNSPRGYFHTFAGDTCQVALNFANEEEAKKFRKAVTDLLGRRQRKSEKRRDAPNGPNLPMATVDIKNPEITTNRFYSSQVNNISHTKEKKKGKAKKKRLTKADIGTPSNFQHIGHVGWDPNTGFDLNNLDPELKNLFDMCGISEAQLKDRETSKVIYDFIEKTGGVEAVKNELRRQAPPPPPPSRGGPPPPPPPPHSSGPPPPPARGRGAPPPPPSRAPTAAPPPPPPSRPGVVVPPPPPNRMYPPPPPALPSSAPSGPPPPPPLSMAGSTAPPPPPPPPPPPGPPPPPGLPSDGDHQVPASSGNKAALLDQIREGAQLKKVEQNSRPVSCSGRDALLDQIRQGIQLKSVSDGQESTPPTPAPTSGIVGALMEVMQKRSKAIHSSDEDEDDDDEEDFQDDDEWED

Substance | binding [1] | binding [2]
Abelson interacting protein 1 (from UniProt Q9QZM5 1-476) | binds | 
full length SK3 channel protein (transfected) (from UniProt P70605 1-732) |  | binds
neural Wiskott Aldrich Syndrome Protein (from UniProt O08816 1-501) | binds | 
